Data as given in PubChem BioAssay AID1259308 (NCATS, 2017).

- Purpose: 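Genes whose loss raises luciferase production in HEK293 cells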 (primary screen)
- Cell system: human HEK293 embryonic kidney cells stably expressing firefly luciferase (HEK-CMV-Luc2-Hygro)
- Knock-down reagent: single siRNA against human genes, 0.8 pmol siRNA per well
- Timing: 72 h
- Measured: 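Luciferase light (ONE-Glo) measured on one replicate plate set and viability (CellTiter-Glo) on the other, scaled to a negative control siRNA, with robust z-scores and luciferase per cell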
- Reading the numbers: total luciferase, z-score: higher = more reporter protein produced
- Call rule: 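An siRNA counts as active if its total luciferase robust z-score exceeds 3; genes with two or more such siRNAs out of three were retested with fresh siRNAs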
- Calls: active = raised luciferase; inactive = no rise
In all, the deposit lists about 59,000 reagents; this is a random part of them. Over the whole deposit, about 1,510 (2.6%) were called active. 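Calls use total luciferase alone and ignore viability, so some active siRNAs may act by altering cell number.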 Unmarked entries are inactive. Reagents against one gene are numbered here. Further read-outs or replicates are left out here.

no.	gene	siRNA no.	total luciferase, z-score
1	ALPG (alkaline phosphatase, germ cell)	1	0.776
2	ALPG (alkaline phosphatase, germ cell)	2	-0.122
3	ALPG (alkaline phosphatase, germ cell)	3	-1.19
4	EFL1 (elongation factor like GTPase 1)	1	0.221
5	EFL1 (elongation factor like GTPase 1)	2	1.67
6	EFL1 (elongation factor like GTPase 1)	3	-0.406
7	TNNI1 (troponin I1, slow skeletal type)	1	1.23
8	TNNI1 (troponin I1, slow skeletal type)	2	-0.582
9	TNNI1 (troponin I1, slow skeletal type)	3	-0.342
10	EML5 (EMAP like 5)	1	0.487
11	EML5 (EMAP like 5)	2	-0.138
12	EML5 (EMAP like 5)	3	-0.9
13	CCDC127 (coiled-coil domain containing 127)	1	-0.312
14	CCDC127 (coiled-coil domain containing 127)	2	-0.00284
15	CCDC127 (coiled-coil domain containing 127)	3	0.367
16	MIDEAS (mitotic deacetylase associated SANT domain protein)	1	0.38
17	MIDEAS (mitotic deacetylase associated SANT domain protein)	2	1.83
18	MIDEAS (mitotic deacetylase associated SANT domain protein)	3	0.242
19	SETD5 (SET domain containing 5)	1	1.48
20	SETD5 (SET domain containing 5)	2	1.11
21	SETD5 (SET domain containing 5)	3	-0.3
22	DRAXIN (dorsal inhibitory axon guidance protein)	1	-0.454
23	DRAXIN (dorsal inhibitory axon guidance protein)	2	0.0737
24	DRAXIN (dorsal inhibitory axon guidance protein)	3	-0.171
25	CTLA4 (cytotoxic T-lymphocyte associated protein 4)	1	0.399
26	CTLA4 (cytotoxic T-lymphocyte associated protein 4)	2	1.19
27	CTLA4 (cytotoxic T-lymphocyte associated protein 4)	3	-1.34

Sorted by “total luciferase, z-score” (lowest first): some entries from above.
gene	siRNA no.	total luciferase, z-score
CCDC127 (coiled-coil domain containing 127)	3	0.367
MIDEAS (mitotic deacetylase associated SANT domain protein)	1	0.38
MIDEAS (mitotic deacetylase associated SANT domain protein)	2	1.83

Further reagents follow:
no.	gene	siRNA no.	total luciferase, z-score
28	A3GALT2 (alpha 1,3-galactosyltransferase 2)	1	-0.94
29	A3GALT2 (alpha 1,3-galactosyltransferase 2)	2	3.41 (active)
30	A3GALT2 (alpha 1,3-galactosyltransferase 2)	3	0.819
31	ZNF593 (zinc finger protein 593)	1	-0.652
32	ZNF593 (zinc finger protein 593)	2	0.137
33	ZNF593 (zinc finger protein 593)	3	0.013
34	EIF3B (eukaryotic translation initiation factor 3 subunit B)	1	-2.55
35	EIF3B (eukaryotic translation initiation factor 3 subunit B)	2	-2.23
36	EIF3B (eukaryotic translation initiation factor 3 subunit B)	3	-2.29
37	LINC00992 (long independently transcribed non-coding RNA 992)	1	0.52
38	LINC00992 (long independently transcribed non-coding RNA 992)	2	0.0433
39	LINC00992 (long independently transcribed non-coding RNA 992)	3	3.46 (active)
40	SFPQ (splicing factor proline and glutamine rich)	1	5.09 (active)
41	SFPQ (splicing factor proline and glutamine rich)	2	2.44
42	SFPQ (splicing factor proline and glutamine rich)	3	1.06
43	CNTN5 (contactin 5)	1	0.513
44	CNTN5 (contactin 5)	2	-0.0301
45	CNTN5 (contactin 5)	3	-0.0593
46	POU2F2 (POU class 2 homeobox 2)	1	-1.66
47	POU2F2 (POU class 2 homeobox 2)	2	1.03
48	POU2F2 (POU class 2 homeobox 2)	3	-0.108
49	B4GAT1 (beta-1,4-glucuronyltransferase 1)	1	-0.66
50	B4GAT1 (beta-1,4-glucuronyltransferase 1)	2	-1.39
51	B4GAT1 (beta-1,4-glucuronyltransferase 1)	3	0.652
52	KLRG1 (killer cell lectin like receptor G1)	1	-0.954
53	KLRG1 (killer cell lectin like receptor G1)	2	-0.575
54	KLRG1 (killer cell lectin like receptor G1)	3	0.194
55	ZNF85 (zinc finger protein 85)	1	0.0517
56	ZNF85 (zinc finger protein 85)	2	-0.203
57	ZNF85 (zinc finger protein 85)	3	1.4
